Assay results: the supplement of paper PMC12889115
Some of the results follow. Values are raw readings; no control value is given beside them.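 In the initial screen, polymyxin B was used at a concentration that permeabilizes Salmonella's outer membrane but not its inner membrane. Maximum growth was set by DMSO wells with or without polymyxin B. Since plates varied, data were ranked per plate, and compounds giving the lowest OD600 advanced as hits.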

Test system: Salmonella enterica serovar Typhimurium SL1344
Experiment: bacterial growth OD600 after 18 h with compound and polymyxin B; higher = more bacterial growth (less inhibition)
Details: 50 µM, Mueller-Hinton broth

Structure (SMILES)	bacterial growth OD600 (polymyxin B 0.75 µg/mL)	bacterial growth OD600 (polymyxin B 1 µg/mL)
COCC(=O)Nc1cc(C(=O)N(C)Cc2cccs2)cc2ncn(CCc3ccccc3)c12	0.862	
CCC1CCCCN1C(=O)c1coc(COc2ccc3c(c2)OCO3)n1 (stereo unspecified)		0.834
CC(=O)Nc1cnn(-c2ccc(C(=O)N3CCC(Sc4ccc(F)cc4)CC3)cc2)c1	0.464	
O=S(=O)(c1cccc(F)c1)N(Cc1ccc(OCC2CCC2)cc1)C1CC1	0.783	
COc1ccc(CC2(CCC(=O)NCc3nc(-c4ccccc4)cs3)CCC(=O)N2)c(F)c1 (stereo unspecified)	0.789	
CCN(CC1CCCO1)C1CCN(c2nc(C)c3cc4c(cc3n2)CCC4)CC1 (stereo unspecified)	0.996	
Cc1ccc(C(=O)Nc2ccc(N3CCC(NCc4scnc4-c4ccccc4)CC3)cc2)c(C)c1	0.698	
CCOC(=O)C1(Cc2cccc(Cl)c2)CCCN(C(=O)CCc2cnn(C)c2)C1 (stereo unspecified)		0.778
COc1cc(C)c(CN2CCC(C(Cc3ccccc3)N(C)C(=O)c3ccn(C)n3)CC2)cc1C (stereo unspecified)	0.868	
CCOC(=O)C1(Cc2cccc(OC)c2)CCCN(S(=O)(=O)c2cccc(F)c2)C1 (stereo unspecified)		0.853
COc1ccc(C2(CC(=O)N3CCC(c4nc5ccccc5o4)CC3)CC(=O)N(C3CC3)C2=O)cc1 (stereo unspecified)	0.853	
Cc1cnc(C(=O)NC2CC(=O)N(Cc3cccc4ccccc34)C2)cn1 (stereo unspecified)		0.904
Cc1ccc(CCC(=O)N2CCCC(N3CCN(Cc4ccc5c(c4)OCO5)CC3)C2)cc1 (stereo unspecified)		0.823
Cc1nn(-c2ccccc2)c(C)c1CC(=O)N1CCC(n2c(C3CCCO3)nc3cc(C(F)(F)F)ccc32)CC1 (stereo unspecified)	0.944	
Cc1nc(C)c(CC(=O)N2CCCC(Nc3ccccc3)C2)s1 (stereo unspecified)	0.825	
Cc1noc(C)c1C(=O)N1CCC(C2CCN(c3ncccn3)CC2)C1 (stereo unspecified)	0.733	

Structure (SMILES)	bacterial growth OD600 (polymyxin B 0.75 µg/mL)	bacterial growth OD600 (polymyxin B 1 µg/mL)
CCOC(=O)C1(CCOc2ccccc2)CCN(Cc2ccc(OC)cc2)CC1		0.794
O=C(NCc1ccccn1)c1cccc(OC2CCN(C(=O)c3ccsc3)CC2)c1		0.992
CCOC(=O)C1(Cc2ccccc2F)CCCN(C(=O)c2cccnc2)C1 (stereo unspecified)		0.992
c1ccc(OCc2noc(-c3ccc(NC4CCSC4)nc3)n2)cc1 (stereo unspecified)		0.563
COc1ccc(C(=O)NC2CC2)cc1OC1CCN(Cc2ccccc2F)CC1		0.89
CC1(C)Cc2c(cnn2-c2ccc(F)cc2)C(NC(=O)CCCN2CCCCC2=O)C1 (stereo unspecified)		0.879
Cc1ccc(C)c(OCc2cc(C(=O)N3CCC(N4CCSCC4)CC3)no2)c1		1.33
COC(=O)[C@@H]1CCCN1C(=O)Cc1ccc(N2CCC(NC[C@H]3CCc4ccccc4O3)CC2)cc1	0.759	
CCOC(=O)CC1COCCN1Cc1nc(-c2cccc(C)c2)oc1C (stereo unspecified)		0.939
Cc1ccc(CN(C)CC2(O)CCCN(CC3CCC3)C2=O)o1 (stereo unspecified)		0.891
COc1cccc(OCc2nc(C(=O)N(C)CC3Cc4ccccc4O3)co2)c1 (stereo unspecified)		0.777
COc1ccc(N2C(=O)CN(C(=O)CSc3ccccn3)CC23CCCC3)cc1	0.783	
COc1cccc(NC(=O)CCC2CCN(S(=O)(=O)c3cccnc3)CC2)c1		0.936
NC(=O)c1ccc(NCc2cccnc2Oc2cccc(C(F)(F)F)c2)nc1	0.442	
COCCN(Cc1ccc(OC)c(O)c1)CC1CCCN(C2Cc3ccccc3C2)C1 (stereo unspecified)		0.85

3 entries from above, sorted by SMILES length, smallest number first:
Structure (SMILES)	bacterial growth OD600 (polymyxin B 0.75 µg/mL)	bacterial growth OD600 (polymyxin B 1 µg/mL)
COc1cccc(OCc2nc(C(=O)N(C)CC3Cc4ccccc4O3)co2)c1 (stereo unspecified)		0.777
COc1ccc(N2C(=O)CN(C(=O)CSc3ccccn3)CC23CCCC3)cc1	0.783	
COC(=O)[C@@H]1CCCN1C(=O)Cc1ccc(N2CCC(NC[C@H]3CCc4ccccc4O3)CC2)cc1	0.759	
